Reference: US11471460B2, “Autophagy modulators for use in treating cancer” (The United States of America,as represented by the …, priority 2017, dated 2022)
At least one structure is not confirmed: it was looked up by name or label, or the drawing left a doubt.

Tests used:
[1] = system: osteosarcoma U2OS cells; assay: Induction of cytoplasmic vacuoles (enlarged lysosomes) in U2OS cells, light microscopy; type: cell-based, human
Text: Vehicle is the concentration of DMSO that was introduced by addition of compounds.
These effects are dependent on the compound selected, its concentration and the length of time cells are exposed to the compound.
Cells were obtained from the American Type Culture Collection. BORCS5-KO HeLa cells have been described previously. Osteosarcoma U2OS were routinely seeded in 6-well plates (0.5×10^5 cells/well) and cultured in Dulbecco's Modified Eagle's medium supplemented with L-Glutamine, 4.5 g/L Glucose, Sodium Pyruvate, Phenol Red, and either heat-inactivated or normal 10% fetal calf serum at 37° C. in 5% CO2. Approximately 15-19 hours later, the indicated compound was added in 1:1000 dilutions. Results were the same using either heat-inactivated or normal fetal calf serum. Melanoma A375, embryonic kidney 293T and human foreskin fibroblast Hs27 cells were cultured in the same medium, except that cells were seeded into 12-well plates at 10^3 cells/well.
Phase contrast photographs were taken on an Olympus CKX41 microscope. Confocal photographs were taken on a Leica TCS-SP5II. […] The final composite images were created and properly analyzed for lysosomal size examination using ImageJ (NIH).

[2] = system: LC3-II and p62 in U2OS cells; assay: Accumulation of autophagosome markers LC3-II and p62, Western immuno-blotting; type: cell-based, human
Description: Cells were cultured for 4 hrs before total cell extracts were subjected to Western immuno-blotting for LC3, p62 and β-actin. Blot was developed with film. […] (C) U2OS cells were cultured for the times indicated in the presence of 1.2 μM compound 1 to produce 80% of the maximum observed in FIG. 10A. Total cell extracts were assayed at the times indicated. […] All blots were stained with Ponceau S […].
Total cell lysates were prepared (in 4× dye). Proteins were fractionated at 200V in a NuPAGE 4-12% bis-tris polyacrylamide gel (NP0323, Novex) using NuPAGE MES running buffer (NP0002, Novex) and then stained with PageBlue (24260, Thermo Scientific) in order to quantify the relative amount of histones in each sample. […] Proteins were wet-transferred onto nitrocellulose membranes (162-0112, Bio-Rad) using NuPAGE transfer buffer (NP-0006-1, Novex) for 1 hour at 30V. Membranes were then stained with dilute Ponceau S solution, blocked in 5% milk for 30 minutes at room temperature, and incubated overnight at 4° C. in primary antibody. […]

CO[C@H]1C[C@@H]2CC[C@@H](C)[C@@](O)(O2)C(=O)C(=O)N2CCCC[C@H]2C(=O)O[C@H]([C@H](C)C[C@@H]2CC[C@@H](O)[C@H](OC)C2)CC(=O)[C@H](C)/C=C(\C)[C@@H](O)[C@@H](OC)C(=O)[C@H](C)C[C@H](C)/C=C/C=C/C=C/1C [rapamycin, reference compound]
Induction of vacuoles / enlarged lysosomes [1]: did not induce vacuolization | Accumulation of LC3-II [2]: did not induce
